In this assay the target is fGAL4-MLL 869/1124 (UniProt Q03164). Nature of the assay: affinity purification with mass spectrometry; fGAL4-MLL 869/1124 or MTMTh purified from the chromatin fraction of HEK293T cells by fanChIP; LC-MS/MS.

Amino acid sequences for entries named in this document (tags omitted). Residues count along the entry.
UniProt Q03164, residues 869-1124: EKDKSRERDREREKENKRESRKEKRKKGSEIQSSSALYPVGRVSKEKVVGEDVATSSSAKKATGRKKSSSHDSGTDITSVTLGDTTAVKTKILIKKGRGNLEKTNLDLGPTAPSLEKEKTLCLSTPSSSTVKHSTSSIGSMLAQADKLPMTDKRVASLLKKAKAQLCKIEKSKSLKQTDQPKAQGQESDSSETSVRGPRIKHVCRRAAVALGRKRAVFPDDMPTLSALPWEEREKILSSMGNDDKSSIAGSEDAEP
UniProt Q8WYH8: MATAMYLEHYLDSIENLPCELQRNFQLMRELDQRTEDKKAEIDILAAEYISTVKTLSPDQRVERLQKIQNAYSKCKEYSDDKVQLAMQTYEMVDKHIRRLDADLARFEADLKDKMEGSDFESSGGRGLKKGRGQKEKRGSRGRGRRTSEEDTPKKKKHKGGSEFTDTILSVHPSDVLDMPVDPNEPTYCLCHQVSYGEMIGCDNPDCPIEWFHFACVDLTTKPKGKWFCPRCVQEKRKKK

Results are given in words; binding and its absence hold for the method and conditions named. In cells and extracts the contact can be indirect. A yes stands for co-enrichment or nearness to the bait. Other partners may have been found.

ING5 (from UniProt Q8WYH8 1-240): the binding result is “binds”.

B1: PHF16 (protein, UniProt Q92613 1-823)
chain: MKRHRPVSSSDSSDESPSTSFTSGSMYRIKSKIPNEHKKPAEVFRKDLISAMKLPDSHHINPDSYYLFADTWKEEWEKGVQVPASPDTVPQPSLRIIAEKVKDVLFIRPRKYIHCSSPDTTEPGYINIMELAASVCRYDLDDMDIFWLQELNEDLAEMGCGPVDENLMEKTVEVLERHCHENMNHAIETEEGLGIEYDEDVICDVCRSPDSEEGNDMVFCDKCNVCVHQACYGILKVPEGSWLCRSCVLGIYPQCVLCPKKGGALKTTKTGTKWAHVSCALWIPEVSIACPERMEPITKISHIPPSRWALVCNLCKLKTGACIQCSIKSCITAFHVTCAFEHGLEMKTILDEGDEVKFKSYCLKHSQNRQKLGEAEYPHHRAKEQSQAKSEKTSLRAQKLRELEEEFYSLVRVEDVAAELGMPTLAVDFIYNYWKLKRKSNFNKPLFPPKEDEENGLVQPKEESIHTRMRMFMHLRQDLERVRNLCYMISRREKLKLSHNKIQEQIFGLQVQLLNQEIDAGLPLTNALENSLFYPPPRITLKLKMPKSTPEDHRNSSTETDQQPHSPDSSSSVHSIRNMQVPQESLEMRTKSYPRYPLESKNNRLLASLSHSRSEAKESSPAWRTPSSECYHGQSLGKPLVLQAALHGQSSIGNGKSQPNSKFAKSNGLEGSWSGNVTQKDSSSEMFCDQEPVFSPHLVSQGSFRKSTVEHFSRSFKETTNRWVKNTEDLQCYVKPTKNMSPKEQFWGRQVLRRSAGRAPYQENDGYCPDLELSDSEAESDGNKEKVRVRKDSSDRENPPHDSRRDCHGKSKTHPLSHSSMQR
Turning to B1, the binding result is reported as “binds”.
